Measured values reported in PubChem BioAssay AID1671190 (National Center for Advancing Translational Sciences (NCATS), 2021).
Hit rate of the full screen: of about 580,000 compounds, about 6,100 (1.1%) were called active. The inconclusive results got no clear call from the source; some entries with a clear call stand among them for comparison. Calls come from the whole dose curve; as a rule, active = well fitted inhibition curve with a large enough effect; inconclusive = small, poorly fitted or top-dose-only effect, or another doubt; inactive = no such curve, though single readings can be large or run the other way. Where the call is inconclusive, the potency comes from a doubtful curve fit.
% is set by controls: 0 for no effect and ±100 for the full control effect; potency is the fitted concentration of half-maximal effect.

Protein sequences, listed by entry. Tags and fused reporters are not part of them. Lines headed by an entry give the natural chain unless they say otherwise; changes in a name come on top.
UniProt P18054: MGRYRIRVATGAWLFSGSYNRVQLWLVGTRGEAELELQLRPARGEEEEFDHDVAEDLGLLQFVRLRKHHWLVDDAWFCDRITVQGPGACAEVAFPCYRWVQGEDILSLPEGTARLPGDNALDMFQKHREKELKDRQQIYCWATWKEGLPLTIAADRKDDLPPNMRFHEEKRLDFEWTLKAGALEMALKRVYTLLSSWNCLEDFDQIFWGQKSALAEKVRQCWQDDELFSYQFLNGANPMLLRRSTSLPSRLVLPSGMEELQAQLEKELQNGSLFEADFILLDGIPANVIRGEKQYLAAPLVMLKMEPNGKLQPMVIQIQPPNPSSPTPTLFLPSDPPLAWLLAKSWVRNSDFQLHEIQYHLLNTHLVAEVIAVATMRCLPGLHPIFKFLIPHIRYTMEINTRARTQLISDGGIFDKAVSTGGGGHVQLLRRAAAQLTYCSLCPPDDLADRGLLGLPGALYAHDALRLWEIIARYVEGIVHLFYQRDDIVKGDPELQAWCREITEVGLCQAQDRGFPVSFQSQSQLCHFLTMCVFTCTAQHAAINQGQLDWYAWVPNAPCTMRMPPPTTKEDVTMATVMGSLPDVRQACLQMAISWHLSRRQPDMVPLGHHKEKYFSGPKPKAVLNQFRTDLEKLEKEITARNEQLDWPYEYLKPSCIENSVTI

The compounds below were run against Polyunsaturated fatty acid lipoxygenase ALOX12 (Homo sapiens) (UniProt P18054) (assay: Primary qHTS assay for inhibitors of human arachidonate 12S-lipoxygenase (ALOX12): Round 2). Conditions: purified 12hLO, xylenol orange hydroperoxide absorbance; activity change, negative = inhibition: at 108 µM (top of the series) unless noted.
Outline: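 Purified human 12hLO at 150 nM in 25 mM Hepes, 0.01% Triton X-100, pH 7.0, preincubated 15 min at room temperature with compound. Reaction started with 40 uM arachidonic acid, 30 min at room temperature. Hydroperoxide measured by Fe-xylenol orange, 573/405 nm absorbance ratio.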
For `Cc1ccc(S(=O)(=O)c2cnc(-c3ccccc3)nc2N2CCCCC2)cc1`, the “activity change, negative = inhibition” value was inactive: -26.3%. With `Cc1nc2scc(CC(=O)NCc3ccco3)n2c(=O)c1-c1cc(C)n(-c2ccccc2F)n1` the “activity change, negative = inhibition” value was inactive: 1.36%. With `CCOc1ccccc1C1C(C(=O)OC)=C(C)NC2=C1C(=O)c1ccccc12` (stereo not drawn) the Potency was inconclusive: 100 µM [inhibitor, single point]. `CCCOc1ccc(NC(=O)C(C)Oc2ccc(C)c(C)c2)c2cccnc12` (stereo not drawn) was tested, and the Potency was inconclusive: 89.1 µM [inhibitor, single point]. With `Cc1cccc(NC(=S)NCc2ccccn2)c1` the Potency was inconclusive: 141 µM [inhibitor, single point]. `O=C1CCCCC1Nc1ccc(Br)cc1` (stereo not drawn) was tested, and the Potency was inconclusive: 50.1 µM [inhibitor, partial curve, poor fit]. `O=C(c1ccccc1)N1CCN(c2ccc(NCc3ccc4c(c3)OCO4)cc2)CC1` was tested, and the Potency was inconclusive: 20 µM [inhibitor, partial curve]. For `COc1ccc(S(=O)(=O)N2CCOCC2)cc1NC(=O)Cc1ccsc1`, the “activity change, negative = inhibition” value was inactive: -9.96%. In the case of `O=C(NCc1ccco1)C1CC(c2ccccc2)CN(C(=O)C2CCCC2)C1` (stereo not drawn), the “activity change, negative = inhibition” value is reported as inactive: 12.4%. In the case of `Cc1noc(C)c1CSc1ccccc1C(=O)Nc1nccs1`, the Potency is reported as inconclusive: 31.6 µM [inhibitor, single point]. In the case of `c1ccc2c(NC3CC3)nc(-c3ccoc3)nc2c1`, the Potency is reported as inconclusive: 1.78 µM [inhibitor, full curve, poor fit]. For `COc1ccc(Cl)cc1NC(=O)c1c(NCc2ccc(C)o2)sc2c1CCCCC2`, the Potency was inconclusive: 70.8 µM [inhibitor, partial curve, poor fit]. For `Cc1ccc(S(=O)(=O)C(C#N)c2nc3ccccc3nc2OC(C)C)cc1` (stereo not drawn), the Potency was inconclusive: 50.1 µM [inhibitor, partial curve, poor fit]. In the case of `CC(C)[C@H](NC(=O)N1CCn2c1nc1ccccc12)C(=O)NC1CCCCC1`, the “activity change, negative = inhibition” value is reported as inactive: 2.43%. With `O=C(Nc1ccc(F)cc1)Nc1ccc(N2CCCC2)c(S(=O)(=O)Nc2ccccc2Cl)c1` the “activity change, negative = inhibition” value was inactive: -6.7%. `COc1cccc(-c2nc(-c3ccc(S(=O)(=O)N4CCCCC4)cc3)cs2)c1OC` was tested, and the Potency was inconclusive: 50.1 µM [inhibitor, single point]. `O=C(O)C(NCc1ccco1)c1c[nH]c2ccccc12` (stereo not drawn) was tested, and the Potency was inconclusive: 2.24 µM [inhibitor, full curve]. For `COC(=O)c1cc2sccc2n1CC(=O)Nc1ccc(OC)c(OC)c1OC`, the “activity change, negative = inhibition” value was inactive: -4.77%. `CCS(=O)(=O)N1CCN(CC(=O)NC2CCCCC2)CC1` was tested, and the Potency was inconclusive: 63.1 µM [inhibitor, partial curve, poor fit]. For `C=CCOC(=O)/C(=C\c1ccccc1)NC(=O)c1ccc(C)cc1`, the “activity change, negative = inhibition” value was inactive: 0.887%. With `CN(C)CCNc1nnnc2c1sc1nc(N3CCOCC3)c3c(c12)CC(C)(C)OC3` the “activity change, negative = inhibition” value was inactive: 9.15%. In the case of `COc1cc(CNn2c(C)n[nH]c2=S)cc(Br)c1OCc1ccc(F)cc1`, the Potency is reported as inconclusive: 50.1 µM [inhibitor, partial curve, poor fit]. `Cc1ccc(SCc2nc(-c3ccc(C(=O)NCc4cccnc4)cc3)oc2C)cc1` was tested, and the Potency was inconclusive: 50.1 µM [inhibitor, partial curve, poor fit]. For `CCn1c(C)c2c(C)nnc(C)c2c1C`, the “activity change, negative = inhibition” value was inactive: 160%. `FC(F)(F)c1cccc(-c2csc(-c3ccncc3)n2)c1` was tested, and the Potency was inconclusive: 89.1 µM [inhibitor, single point]. With `C=CCN(CC=C)Cc1cc(=O)oc2ccccc12` the Potency was inconclusive: 44.7 µM [inhibitor, partial curve, poor fit]. `CN(C)CCN(C)C(=O)c1ccc(NC(=O)Nc2ccc(-c3nc(N4CCOCC4)c4ccn(CC(F)(F)F)c4n3)cc2)cc1` was tested, and the Potency was inconclusive: 7.69 µM [inhibitor, full curve, poor fit]. `COc1ccc(NC(=O)c2cc(-c3ccc[nH]3)n[nH]2)cc1` was tested, and the Potency was inconclusive: 31.6 µM [inhibitor, full curve]. `Cc1nc(CN2C(=O)COc3ccc(S(=O)(=O)NCc4ccccc4)cc32)no1` was tested, and the Potency was inconclusive: 112 µM [inhibitor, partial curve, poor fit]. With `O=C(C1CC1)N1CCc2cc(Br)cc(S(=O)(=O)N3CCN(c4cccc(C(F)(F)F)c4)CC3)c21` the “activity change, negative = inhibition” value was inactive: -22.5%. `CCOc1cc(/C=C2\C(=O)ON=C2c2ccccc2)ccc1OC` was tested, and the Potency was active: 12.6 µM. For `Nc1nnc(CC(=O)N/N=C/c2cc([N+](=O)[O-])cc(Br)c2O)s1`, the Potency was active: 15.8 µM. For `COCCN1CCCN(C(=O)c2cccc(F)c2)c2ccccc21`, the Potency was inconclusive: 14.1 µM [inhibitor, partial curve]. With `Cc1ccc(S(=O)(=O)NCc2ccc(N3CCCC3)nc2)cc1C` the “activity change, negative = inhibition” value was inactive: -7.36%. With `Cc1ccc(-c2csc3nc[nH]c(=O)c23)cc1C` the Potency was inconclusive: 89.1 µM [inhibitor, single point]. For `Cc1cc(C)c2sc(N(CCCN(C)C)C(=O)c3ccc(Br)s3)nc2c1`, the Potency was inconclusive: 44.7 µM [inhibitor, partial curve, poor fit]. With `CCOC(=O)C1C(=O)C(=O)N(C2CCCCC2)C1C(=O)OCC` (stereo not drawn) the Potency was inconclusive: 50.1 µM [inhibitor, partial curve, poor fit]. `CC(=O)N1CCc2cc(Br)cc(S(=O)(=O)N3CCN(c4cccc(C(F)(F)F)c4)CC3)c21` was tested, and the Potency was inconclusive: 112 µM [inhibitor, partial curve, poor fit]. With `Cc1ccc2nsnc2c1NC(=O)COc1ccccc1F` the “activity change, negative = inhibition” value was inactive: -4.92%. With `CCOc1ccc(S(=O)(=O)Nc2cccc(C(=O)NCC3CCCO3)c2)cc1` (stereo not drawn) the Potency was inconclusive: 112 µM [inhibitor, single point]. In the case of `CCCS(=O)(=O)NC(=O)C1(C)CCN(C(=O)c2ccc(C(=O)OC)cc2)C1` (stereo not drawn), the Potency is reported as inconclusive: 39.8 µM [inhibitor, partial curve]. For `COc1ccccc1NC(=O)C1=C(C)Nc2c(C(=O)Nc3ccc(F)cc3)cnn2C1c1cccc([N+](=O)[O-])c1` (stereo not drawn), the “activity change, negative = inhibition” value was inactive: -12%. For `Cc1ccc([C@H]2C(C(=O)O)=CC[C@@H](c3ccc(Cl)cc3)N2S(=O)(=O)c2ccc(C)cc2)cc1`, the “activity change, negative = inhibition” value was inactive: -60%. With `Cc1cccc(OCCCC(=O)Nc2nc3ccccc3[nH]2)c1` the Potency was inconclusive: 100 µM [inhibitor, single point]. In the case of `O=C1Nc2ccccc2C1=Nc1ccc(S(=O)(=O)Nc2nccs2)cc1`, the Potency is reported as inconclusive: 6.31 µM [inhibitor, full curve, poor fit]. With `Cc1ccn2c(=O)c(C(=O)O)cnc2c1` the Potency was inconclusive: 100 µM [inhibitor, partial curve, poor fit]. In the case of `COc1ccc(S(=O)(=O)n2cccc2)cc1OC`, the “activity change, negative = inhibition” value is reported as inactive: -3.03%. In the case of `Cc1ccc(CN2CCC(CNC(=O)Nc3cn(CC(C)C)c(=O)c4ccccc34)C2)cc1` (stereo not drawn), the Potency is reported as active: 44.7 µM. In the case of `Cc1noc(/C=C/c2cccs2)c1S(=O)(=O)N1CCC(C(=O)Nc2ccc(F)c(Cl)c2)CC1`, the Potency is reported as inconclusive: 63.1 µM [inhibitor, partial curve, poor fit]. In the case of `Cc1ccccc1/C=N/Nc1ccc(S(N)(=O)=O)cc1[N+](=O)[O-]`, the “activity change, negative = inhibition” value is reported as inactive: 15%. For `CC(C)CC(=O)NCCc1noc(C2CC2)n1`, the “activity change, negative = inhibition” value was inactive: -2.61%. For `CCc1n[nH]c(=S)n1/N=C/c1ccc(N(CC)CC)cc1`, the Potency was inconclusive: 70.8 µM [inhibitor, partial curve, poor fit]. In the case of `CN(Cc1ccccc1)C(=O)C1CCN(Cc2cccc3ccccc23)CC1`, the Potency is reported as active: 1.26 µM. In the case of `CCC(=O)N1CCc2cc(Br)cc(S(=O)(=O)N3CCC(C(=O)NCCCOC(C)C)CC3)c21`, the Potency is reported as “inactive”. In the case of `COc1ccccc1N1CCN(Cc2ccsc2)CC1`, the Potency is reported as inconclusive: 0.708 µM [inhibitor, full curve, poor fit]. For `Clc1cc2cccnc2c2ccccc12`, the Potency was inconclusive: 50.1 µM [inhibitor, partial curve, poor fit]. In the case of `CCOc1ccc(N2CC(=O)N/C2=N\c2nc(C)cc(C)n2)cc1`, the Potency is reported as inconclusive: 31.6 µM [inhibitor, partial curve, poor fit]. In the case of `Cc1nc(NC(=O)c2ccccc2)sc1Cc1ccc2c(c1)OCO2`, the Potency is reported as inconclusive: 50.1 µM [inhibitor, partial curve, poor fit]. In the case of `CCN(CC)c1ccc(C2C(C(=O)Nc3ccccn3)=C(C)NC3=C2C(=O)CC(C)(C)C3)cc1` (stereo not drawn), the Potency is reported as inconclusive: 2.24 µM [inhibitor, partial curve, poor fit]. In the case of `CCOc1ccc(NC(=O)c2ccc(NC(=O)N3CCSc4ncccc43)cc2)cc1`, the Potency is reported as inconclusive: 50.1 µM [inhibitor, partial curve, poor fit]. `CCn1c(SC(C)C(=O)Nc2nccs2)nnc1-c1ccco1` (stereo not drawn) was tested, and the Potency was inconclusive: 31.6 µM [inhibitor, partial curve, poor fit]. With `CCOC(=O)COc1cc(-n2c(=S)[nH]c3ccccc3c2=O)c(Cl)cc1Cl` the Potency was inconclusive: 39.8 µM [inhibitor, partial curve, poor fit]. In the case of `N#Cc1c(NC(NC(=O)c2ccco2)C(=O)c2ccccc2)sc2c1CCCC2` (stereo not drawn), the Potency is reported as inconclusive: 17.8 µM [inhibitor, full curve, poor fit]. For `Cc1ccc(CN(C)C(=O)c2cc3ccc(C(C)C)cc3[nH]2)o1`, the Potency was inconclusive: 44.7 µM [inhibitor, partial curve, poor fit]. With `COc1ccc(C(=O)/C=C/c2cccs2)c(OC(=O)c2cccs2)c1` the “activity change, negative = inhibition” value was inactive: -19.9%. For `Cc1cc(=O)n(CC(=O)Nc2cccc(F)c2)c(-c2ccccc2)n1`, the “activity change, negative = inhibition” value was inactive: 5.96%. With `NC(N)=NC(N)=NCCc1ccccc1` the Potency was “inactive”. For `COc1ccc2c(CCNC(=O)CCNc3nc(Cl)nc4nc[nH]c34)c[nH]c2c1`, the Potency was inconclusive: 0.355 µM [inhibitor, full curve, poor fit].
